PubChem BioAssay AID1259308 | NCATS | 2017

Aim: 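Knock-downs that increase output of a recombinant reporter protein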 (primary screen)
System: human HEK293 embryonic kidney cells stably expressing firefly luciferase (HEK-CMV-Luc2-Hygro)
Knock-down reagent: single siRNA against human genes, 0.8 pmol siRNA per well
Duration: 72 h
Detection: 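Luciferase light (ONE-Glo) measured on one replicate plate set and viability (CellTiter-Glo) on the other, scaled to a negative control siRNA, with robust z-scores and luciferase per cell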
Scale: total luciferase, z-score: higher = more reporter protein produced
Hit rule: 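An siRNA counts as active if its total luciferase robust z-score exceeds 3; genes with two or more such siRNAs out of three were retested with fresh siRNAs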
Calls: active = raised luciferase; inactive = no rise
In all, the deposit lists about 59,000 reagents; this is an unselected part. About 1,510 of them (2.6%) count as active. 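Calls use total luciferase alone and ignore viability, so some active siRNAs may act by altering cell number.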 Not all columns of the deposit are shown.

For RNF224 (GeneID 643596) [SID160733824], the entry reads total luciferase, z-score -1.33; inactive.
RNF224 (GeneID 643596) [SID160768924] showed total luciferase, z-score 0.727; inactive.
Knock-down of RNF224 (GeneID 643596) [SID160768926] came out at: total luciferase, z-score -0.113; inactive.
ATP6V1E2 (GeneID 90423) [SID160732129] gave total luciferase, z-score -0.358; inactive.
After knock-down of ATP6V1E2 (GeneID 90423) [SID160753696], the record shows total luciferase, z-score 1.07; inactive.
Knock-down of ATP6V1E2 (GeneID 90423) [SID160753697] came out at: total luciferase, z-score 4.48; active.
Knock-down of PHKA1 (GeneID 5255) [SID160714251] came out at: total luciferase, z-score 1.15; inactive.
Against PHKA1 (GeneID 5255) [SID160714253], the values are total luciferase, z-score -0.854; inactive.
Knock-down of PHKA1 (GeneID 5255) [SID160714254] came out at: total luciferase, z-score 0.349; inactive.
After knock-down of MAP7D2 (GeneID 256714) [SID160762480], the record shows total luciferase, z-score 0.464; inactive.
With knock-down of MAP7D2 (GeneID 256714) [SID160762481], the record shows total luciferase, z-score 0.819; inactive.
Against MAP7D2 (GeneID 256714) [SID160762482] the deposit lists total luciferase, z-score 1.87; inactive.
KHK (GeneID 3795) [SID160776265] scored total luciferase, z-score 2.74; inactive.
For KHK (GeneID 3795) [SID160776266], the entry reads total luciferase, z-score -1.14; inactive.
For KHK (GeneID 3795) [SID160776268], the values are total luciferase, z-score -1.49; inactive.
Silencing of ENPP5 (GeneID 59084) [SID160746953] resulted in: total luciferase, z-score -0.46; inactive.
For ENPP5 (GeneID 59084) [SID160746954], the entry reads total luciferase, z-score -0.349; inactive.
With knock-down of ENPP5 (GeneID 59084) [SID160746955], the record shows total luciferase, z-score -1.26; inactive.
After knock-down of TAGLN3 (GeneID 29114) [SID160733031], the record shows total luciferase, z-score 0.241; inactive.
With knock-down of TAGLN3 (GeneID 29114) [SID160739096], the screen gave total luciferase, z-score 1.02; inactive.
With knock-down of TAGLN3 (GeneID 29114) [SID160739097] the results were total luciferase, z-score -0.0996; inactive.

Active calls (from the list above):
ATP6V1E2 (GeneID 90423) [SID160753697] — total luciferase, z-score: 4.48; activity call: active

Continued.
Against MED25 (GeneID 81857) [SID160731975], the entry reads total luciferase, z-score -1.23; inactive.
After knock-down of MED25 (GeneID 81857) [SID160751037], the record shows total luciferase, z-score -1.04; inactive.
Knock-down of MED25 (GeneID 81857) [SID160751038] came out at: total luciferase, z-score 1.74; inactive.
B3GNT8 (GeneID 374907) [SID160765343] scored total luciferase, z-score -0.0505; inactive.
B3GNT8 (GeneID 374907) [SID160765344] scored total luciferase, z-score -1.86; inactive.
After knock-down of B3GNT8 (GeneID 374907) [SID160765346], the record shows total luciferase, z-score 3.71; active.
Against MSMP (GeneID 692094) [SID160726440] the deposit lists total luciferase, z-score -0.346; inactive.
Silencing of MSMP (GeneID 692094) [SID160771134] gave: total luciferase, z-score -0.364; inactive.
For MSMP (GeneID 692094) [SID160771135] the deposit lists total luciferase, z-score -0.165; inactive.
Knock-down of CDK5RAP1 (GeneID 51654) [SID160741161] resulted in: total luciferase, z-score -0.137; inactive.
Knock-down of CDK5RAP1 (GeneID 51654) [SID160741162] resulted in: total luciferase, z-score 0.196; inactive.
Depletion of CDK5RAP1 (GeneID 51654) [SID160741163] came out at: total luciferase, z-score -1.59; inactive.
